Measurements reported in the supplement of paper PMC5949888.
± gives the standard deviation of the averaged measurements. Most values lie at the floor of the assay. Slopes are relative: functional sequences can read slightly below zero.

These substances were tested on Saccharomyces cerevisiae PS128 hsf1 delta, HSF1(1-493) fusion (assay: growth estimate (transactivation domain function in HSF1 fusion, heat-shock survival) (a.u. (slope of normalised read count over time)); higher = stronger growth at 37°C, i.e. more transactivation activity). Details: library: random library.

Row | Substance | growth estimate
1 | CNLDISRGVTLQLNVRSVCH | -0.205
2 | TACLR | < -0.25
3 | TDLYKGGGMLSDFGKPIRGH | < -0.25
4 | PLSSQIDRYYKSVLGPVYSG | -0.241
5 | TRI | -0.245 ± 0.0065
6 | VERDGIASQLSYG | < -0.25
7 | LATACGRPG | < -0.25
8 | ECGSRRVRSSGDI | < -0.25
9 | GFLCGEILNRMELG | < -0.25
10 | CRQSLSRVFAGPVL | < -0.25
11 | RFLYTSFGLV | < -0.25
12 | PPQPSHLGVFHLLGPSTGSA | < -0.25
13 | CSPFCAQSRGTRAKFEGLCA | < -0.25
14 | TDWVMASHSVNCSMEVYCSC | < -0.25
15 | ARDSPIIGMYGLRSRYVKYP | < -0.25
16 | TLVHIA | < -0.25
17 | TGCF | < -0.25
18 | ANLPLCISELIKATQGGHGH | < -0.25
19 | QPAIG | < -0.25
20 | LTCADVQGRARSY | < -0.25
21 | DLYVPSGCVSLRLQINTRHI | < -0.25
22 | FAPAN | < -0.25
23 | LLTRSTPDTRD | < -0.25

Row | Substance | growth estimate
24 | QAGSPWIPDRFLPVKHAYMS | -0.198
25 | GNQSVAVRSLALGIVTWSEG | < -0.25
26 | HWGGRRI | < -0.253
27 | MFL | < -0.25
28 | ERRPGENARHRAASSMTNMG | < -0.25
29 | DGMGPNSASSKAA | < -0.25
30 | GDCTDYHSKVRQTSCYGATY | < -0.25
31 | RPIHLPPMEHHDRLLC | < -0.25
32 | RGHRIPAEVRRLDNPHFRTQ | < -0.25
33 | VDGNG | < -0.25
34 | FLSLVRTRREYRRSVTLQLI | < -0.25
35 | AVLQQRGHSFEAGARHSRRV | < -0.25
36 | VGIGWSIGR | < -0.25
37 | GSPVRSVEIREMIIELRPTH | < -0.25
38 | KGVGIIRGMGKVAV | < -0.25
39 | NFQIHFRIVIIYMFYHPVRT | < -0.253
40 | CSRLQRRLRYMRVCKSWVAL | < -0.25
41 | NSPVTFSWAIHGTQVPVWSR | < -0.25
42 | RTALISA | < -0.25
43 | RMQYSGDTMREAPEDTARYI | < -0.25
44 | LGREAASGRRDFLCFLGDSK | < -0.25
45 | QKAGIIVCRAPSFINTRRHH | < -0.25
46 | CYTYFSVPALMSRPLTEQLS | < -0.25

Row | Substance | growth estimate
47 | RVCRSTDNPSPYSPHWNQQS | < -0.25
48 | GAF | < -0.25
49 | ASSRQSRVARGSRPVCGPLI | < -0.25
50 | CFVLRIRRLSVQGATGSKRN | < -0.25
51 | SVFPA | < -0.25
52 | VKWPSGWNAKWEKAVHR | < -0.25
53 | REKRRVLGGESNS | < -0.25
54 | YQAACK | < -0.25
55 | PCISRYGLGSSCGLGPTVFI | < -0.25
56 | RKNFEKSARRGQARALT | < -0.25
57 | SIETNRLSRAFFRGTGKMLQ | < -0.25
58 | PVCRPNATVESLTREWSLPS | < -0.25
59 | HHTIVGVVGSRAGYDCRPQS | < -0.25
60 | LELGEHVCVKKAPPHSAFKL | -0.229
61 | RFAGLGGRLVELHLT | < -0.25
62 | YSQTGLVPCRRSLIDTR | < -0.25
63 | YILCVSECLLK | < -0.25
64 | RVNGRNQGGRDVPSIGCHIG | < -0.25
65 | TTTK | < -0.25
66 | LAWGLLPLL | < -0.25
67 | VRTSAHARMNGSYDTVRFLW | < -0.25
68 | FSEGRVYGRGAKFSPPWNLR | < -0.25
69 | SPLSSRCPPVAVLGVDPSTL | < -0.25

Row | Substance | growth estimate
70 | LKDSIPERYSLARPR | < -0.25
71 | TDHTFNRI | < -0.25
72 | VWPSVVAE | < -0.25
73 | RGKSGDRSEAPYLCRPDASR | -0.245
74 | FVV | < -0.25
75 | GPLAC | < -0.25
76 | TVLANITHRHELLHFGIYPV | < -0.25
77 | TRGRGNRGGLRAWREIRHPS | < -0.25
78 | RTA | < -0.25
79 | AAAHLTVPTSSYLTRRLAGS | < -0.25
80 | SEGLATLRTIAVEGLRRTRL | < -0.25
81 | LQDAEQLPADLIIHNRQGPT | < -0.25
82 | LAYLGNQWWVAVTRIAYRMD | < -0.25
83 | NSVSMSMLETAVYRLL | < -0.25
84 | CRRRSSLNYRHVRSHQPSTS | < -0.25
85 | PGIPGVGV | < -0.25
86 | THYHLPPLVVKYLGTSCQKI | < -0.25
87 | LPDPFAVGYARPGHELVP | < -0.25
88 | RSAYVCRPVAGPVKALHSTN | < -0.25
89 | EWWIMKEYRRRNGAVLLSTP | < -0.25
90 | VGLYHITSLDILVGLINR | < -0.25
91 | KVSSTMVHDSVTLSNIYGYR | < -0.25
92 | MRSVAIRLGEHNYEKRRAGH | < -0.25

Row | Substance | growth estimate
93 | IEAACMGVDDWARIQNTSYL | -0.147
94 | FSIVPPFIYQVARVSGYLLV | < -0.25
95 | GVRGQYVSKKTGHYSRFYLT | < -0.25
96 | CPPRL | < -0.25
97 | EGRLGTWTLPHC | < -0.25
98 | DRLLAVTREG | < -0.25
99 | ALVFGPRTLHSRRTSPEWAK | < -0.25
100 | CGQPRLARGWCIVCPSGLHW | < -0.25
101 | GNVKVTHG | < -0.25
102 | RIE | < -0.25
103 | TLGVTNASSIVPKLGLNTHS | < -0.25
104 | LSGPGLSVIAKGKSWNPH | < -0.25
105 | MAAEHVSQSPLYT | < -0.25
106 | SDP | < -0.25
107 | VCEGLWSMMDLQVLASHR | -0.249
108 | GWVKLMFRRLKVGDYNNQLN | -0.0001
109 | LPPMVSYYFIAG | < -0.25
110 | KTRGPHFHRP | < -0.25
111 | SFPLDSSDSTNLVDYLRRPA | < -0.25
112 | LQIAYSVPVYHLVSMSAAAR | < -0.25
113 | VNSLSSRDLFLDEHVHKARS | < -0.25
114 | MHLAAQRCQWPKVGSSVSDE | < -0.25
115 | NPEAANTPGWSNYGLTGVRP | < -0.25

Row | Substance | growth estimate
116 | RRYPLESLVFCL | -0.246
117 | PGLCLTRIG | < -0.25
118 | WMGSEKIGVKCCVPSRASRS | < -0.25
119 | AITHISWSLVCRIPYSGTLR | < -0.25
120 | RIHAAF | < -0.25
121 | GVRNPVCLRSCYGAMRS | < -0.25
122 | DFLTGFCRSA | < -0.25
123 | VMSRTQDRIYGWTAIHGNSK | -0.24
124 | GAAYSAAVWFGGWARMVTEL | < -0.25
125 | LRLRSRSVLPYKTAHDPV | < -0.25
126 | ACSQSDQASKKASSPLKRRP | < -0.25
127 | AVGDRRT | < -0.25
128 | ASSTYRP | -0.25
129 | LRSPYSP | < -0.25
130 | TQQTTGLPSD | < -0.25
131 | WCTW | < -0.253
132 | SKHQTFDYPPVAARSLSLHS | < -0.25
133 | GVKRDSASFQ | < -0.25
134 | EPHIKRGVNSLRVEKPHPLA | < -0.25
135 | SICGSLLPVFGGL | < -0.25
136 | FNNEVKRHRGSATVERLKPP | < -0.25
137 | GLWFRAPIVDPSLSVWLRFR | < -0.25
138 | YALWTDSWFSSGSPEDCMDQ | < -0.25

6 entries from above in a different format.

| Row | Substance | growth estimate |
| --- | --- | --- |
| 117 | PGLCLTRIG | < -0.25 |
| 118 | WMGSEKIGVKCCVPSRASRS | < -0.25 |
| 119 | AITHISWSLVCRIPYSGTLR | < -0.25 |
| 120 | RIHAAF | < -0.25 |
| 121 | GVRNPVCLRSCYGAMRS | < -0.25 |
| 122 | DFLTGFCRSA | < -0.25 |

Following part:

Row | Substance | growth estimate
139 | GDAPLRILVTRLLLGNACMG | < -0.25
140 | RAS | < -0.25
141 | EDLIVEDKRKGGILARTSAS | < -0.25
142 | CLGARAIR | -0.25
143 | PSMHLIQRYKCLSTIFADGG | 0.021
144 | ECKIMRIYEGRSVSAHLGER | < -0.25
145 | KTSI | < -0.25
146 | TMCLPNEVWPTILNKPLRVS | < -0.25
147 | FNLLGLSKYS | -0.245
148 | VIHVFDHSVYTG | < -0.25
149 | RSWVRA | < -0.25
150 | YRTNTQTTLRTLLHFNSSAI | < -0.25
151 | LMC | < -0.25
152 | EAICV | < -0.25
153 | RCQVMA | < -0.25
154 | WVGSLPSPSLIQWVLSSTI | < -0.25
155 | RLSCQITLEKDQMRDRTGLG | < -0.25
156 | RALVR | < -0.25
157 | LRRTGSGDDSGARQHPREVL | < -0.25
